Results are given in words; binding and its absence hold for the method and conditions named. Binding seen in cells or lysates may run through a third protein. Some results given as binding are weak or reduced against the parent protein; the word gives no strength.
What was measured:
[1] = target: FLAG-Rab40c (human) (UniProt Q96S21); assay: co-IP; anti-FLAG IP from lysates of MDA-MB-231 cells stably expressing or transfected with FLAG-Rab40c or FLAG-Rab40c-4A, blots for endogenous proteins; lysis buffer 20 mM Tris-HCl pH 7.6, 150 mM NaCl, 2 mM EDTA, 1% Triton X-100, 10% glycerol; 4°C; washes with lysis buffer plus 0.5 M NaCl
[2] = target: FLAG-Rab40c (human) (UniProt Q96S21); assay: as above; remark: listed apart in the source
[3] = target: FLAG-Rab40c (human) (UniProt Q96S21); assay: co-IP; lysates (PBS, 1% Triton X-100) of MDA-MB-231 cells expressing FLAG-Rab40c, 1 mM EDTA 1 min 37°C, then 5 mM MgCl2 with 1 mM GDP or 1 mM GTPγS 10 min 37°C; anti-FLAG IP, blot for ANKRD28
[4] = target: FLAG-Rab40c (in 293T cells) (human) (UniProt Q96S21); assay: co-IP; 293T cells co-transfected with FLAG-Rab40c and scrambled siRNA or siRNAs against ANKRD28, ANKRD52, PP6R1 (alone, or ANKRD28 with ANKRD52); anti-FLAG IP, blots for endogenous ANKRD28, ANKRD52, PP6R1
[5] = target: endogenous Rab40c (human (endogenous in MDA-MB-231)) (UniProt Q96S21); assay: co-IP; anti-Rab40c IP of endogenous Rab40c from MDA-MB-231 lysates; blots with anti-panANKRD, anti-PP6R1, anti-PP6R2, anti-PP6R3

Protein sequences, listed by entry. Tags and fused reporters are not part of them.
UniProt Q96S21: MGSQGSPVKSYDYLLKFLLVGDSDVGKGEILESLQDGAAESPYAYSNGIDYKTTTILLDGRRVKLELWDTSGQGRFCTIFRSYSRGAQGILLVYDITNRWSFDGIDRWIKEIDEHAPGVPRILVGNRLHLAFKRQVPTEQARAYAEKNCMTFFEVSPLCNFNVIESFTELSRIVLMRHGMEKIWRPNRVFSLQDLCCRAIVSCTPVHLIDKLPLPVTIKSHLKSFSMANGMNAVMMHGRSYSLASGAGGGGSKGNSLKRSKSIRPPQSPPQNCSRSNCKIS
UniProt Q93034: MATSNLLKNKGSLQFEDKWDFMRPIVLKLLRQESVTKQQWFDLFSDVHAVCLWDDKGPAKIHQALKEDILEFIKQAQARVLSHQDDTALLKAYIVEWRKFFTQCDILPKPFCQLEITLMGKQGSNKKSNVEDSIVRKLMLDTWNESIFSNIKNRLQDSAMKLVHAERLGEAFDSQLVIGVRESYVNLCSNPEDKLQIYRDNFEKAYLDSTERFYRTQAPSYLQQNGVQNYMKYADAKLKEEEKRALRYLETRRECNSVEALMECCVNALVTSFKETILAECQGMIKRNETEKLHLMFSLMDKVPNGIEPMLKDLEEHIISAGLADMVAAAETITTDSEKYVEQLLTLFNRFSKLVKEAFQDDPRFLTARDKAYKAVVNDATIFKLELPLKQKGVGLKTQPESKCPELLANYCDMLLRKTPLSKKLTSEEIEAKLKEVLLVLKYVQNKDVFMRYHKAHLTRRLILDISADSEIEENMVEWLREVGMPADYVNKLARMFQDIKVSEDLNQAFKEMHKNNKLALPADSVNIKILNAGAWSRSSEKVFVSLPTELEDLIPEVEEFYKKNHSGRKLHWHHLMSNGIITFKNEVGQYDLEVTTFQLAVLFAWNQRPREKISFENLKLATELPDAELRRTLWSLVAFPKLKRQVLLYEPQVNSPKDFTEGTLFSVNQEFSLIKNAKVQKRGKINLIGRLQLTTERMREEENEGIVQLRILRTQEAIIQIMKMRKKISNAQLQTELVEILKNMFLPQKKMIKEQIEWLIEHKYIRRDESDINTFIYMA

binding [2]	binding [4]	Molecule	other results
		Cullin5 (from UniProt Q93034 1-780)	binding [1]: binds
binds		ankyrin repeat domain 28 (ANKRD28) (protein, UniProt O15084 1-1053) MAFLKLRDQPSLVQAIFNGDPDEVRALIFKKEDVNFQDNEKRTPLHAAAYLGDAEIIELLILSGARVNAKDSKWLTPLHRAVASCSEEAVQVLLKHSADVNARDKNWQTPLHIAAANKAVKCAEALVPLLSNVNVSDRAGRTALHHAAFSGHGEMVKLLLSRGANINAFDKKDRRAIHWAAYMGHIEVVKLLVSHGAEVTCKDKKSYTPLHAAASSGMISVVKYLLDLGVDMNEPNAYGNTPLHVACYNGQDVVVNELIDCGAIVNQKNEKGFTPLHFAAASTHGALCLELLVGNGADVNMKSKDGKTPLHMTALHGRFSRSQTIIQSGAVIDCEDKNGNTPLHIAARYGHELLINTLITSGADTAKRGIHGMFPLHLAALSGFSDCCRKLLSSGFDIDTPDDFGRTCLHAAAAGGNLECLNLLLNTGADFNKKDKFGRSPLHYAAANCNYQCLFALVGSGASVNDLDERGCTPLHYAATSDTDGKCLEYLLRNDANPGIRDKQGYNAVHYSAAYGHRLCLQLIASETPLDVLMETSGTDMLSDSDNRATISPLHLAAYHGHHQALEVLVQSLLDLDVRNSSGRTPLDLAAFKGHVECVDVLINQGASILVKDYILKRTPIHAAATNGHSECLRLLIGNAEPQNAVDIQDGNGQTPLMLSVLNGHTDCVYSLLNKGANVDAKDKWGRTALHRGAVTGHEECVDALLQHGAKCLLRDSRGRTPIHLSAACGHIGVLGALLQSAASMDANPATADNHGYTALHWACYNGHETCVELLLEQEVFQKTEGNAFSPLHCAVINDNEGAAEMLIDTLGASIVNATDSKGRTPLHAAAFTDHVECLQLLLSHNAQVNSVDSTGKTPLMMAAENGQTNTVEMLVSSASAELTLQDNSKNTALHLACSKGHETSALLILEKITDRNLINATNAALQTPLHVAARNGLTMVVQELLGKGASVLAVDENGYTPALACAPNKDVADCLALILATMMPVSSSSPLSSLTFNAINRYTNTSKTVSFEALPIMRNEPSSYCSFNNIGGEQEYLYTDVDELNDSDSETY	binding [3]: binds
	binds	ANKRD28 (endogenous in 293T cells) (protein, UniProt O15084 1-1053) MAFLKLRDQPSLVQAIFNGDPDEVRALIFKKEDVNFQDNEKRTPLHAAAYLGDAEIIELLILSGARVNAKDSKWLTPLHRAVASCSEEAVQVLLKHSADVNARDKNWQTPLHIAAANKAVKCAEALVPLLSNVNVSDRAGRTALHHAAFSGHGEMVKLLLSRGANINAFDKKDRRAIHWAAYMGHIEVVKLLVSHGAEVTCKDKKSYTPLHAAASSGMISVVKYLLDLGVDMNEPNAYGNTPLHVACYNGQDVVVNELIDCGAIVNQKNEKGFTPLHFAAASTHGALCLELLVGNGADVNMKSKDGKTPLHMTALHGRFSRSQTIIQSGAVIDCEDKNGNTPLHIAARYGHELLINTLITSGADTAKRGIHGMFPLHLAALSGFSDCCRKLLSSGFDIDTPDDFGRTCLHAAAAGGNLECLNLLLNTGADFNKKDKFGRSPLHYAAANCNYQCLFALVGSGASVNDLDERGCTPLHYAATSDTDGKCLEYLLRNDANPGIRDKQGYNAVHYSAAYGHRLCLQLIASETPLDVLMETSGTDMLSDSDNRATISPLHLAAYHGHHQALEVLVQSLLDLDVRNSSGRTPLDLAAFKGHVECVDVLINQGASILVKDYILKRTPIHAAATNGHSECLRLLIGNAEPQNAVDIQDGNGQTPLMLSVLNGHTDCVYSLLNKGANVDAKDKWGRTALHRGAVTGHEECVDALLQHGAKCLLRDSRGRTPIHLSAACGHIGVLGALLQSAASMDANPATADNHGYTALHWACYNGHETCVELLLEQEVFQKTEGNAFSPLHCAVINDNEGAAEMLIDTLGASIVNATDSKGRTPLHAAAFTDHVECLQLLLSHNAQVNSVDSTGKTPLMMAAENGQTNTVEMLVSSASAELTLQDNSKNTALHLACSKGHETSALLILEKITDRNLINATNAALQTPLHVAARNGLTMVVQELLGKGASVLAVDENGYTPALACAPNKDVADCLALILATMMPVSSSSPLSSLTFNAINRYTNTSKTVSFEALPIMRNEPSSYCSFNNIGGEQEYLYTDVDELNDSDSETY	
binds		PP6R1 (protein, UniProt Q9UPN7 1-881) MFWKFDLHTSSHLDTLLEREDLSLPELLDEEDVLQECKVVNRKLLDFLLQPPHLQAMVAWVTQEPPDSGEERLRYKYPSVACEILTSDVPQINDALGADESLLNRLYGFLQSTGSLNPLLASFFSKVMGILINRKTDQLVSFLRKKDDFVDLLLQHIGTSAIMDLLLRLLTCVERPQLRQDVVNWLNEEKIVQRLIEQIHPSKDENQHSNASQSLCDIIRLSREQMIQVQDSPEPDQLLATLEKQETIEQLLSNMFEGEQSQSVIVSGIQVLLTLLEPRRPRSESVTVNSFFSSVDGQLELLAQGALESTVSSVGALHALRPRLSCFHQLLLEPPKLEPLQMTWGMLAPPLGNTRLHVVKLLASALSANDAALTHELLALDVPNTMLDLFFHYVFNNFLHAQVEGCVSTMLSLGPPPDSSPETPIQNPVVKHLLQQCRLVERILTSWEENDRVQCAGGPRKGYMGHLTRVAGALVQNTEKGPNAEQLRQLLKELPSEQQEQWEAFVSGPLAETNKKNMVDLVNTHHLHSSSDDEDDRLKEFNFPEEAVLQQAFMDFQMQRMTSAFIDHFGFNDEEFGEQEESVNAPFDKTANITFSLNADDENPNANLLEICYKDRIQQFDDDEEEEDEEEAQGSGESDGEDGAWQGSQLARGARLGQPPGVRSGGSTDSEDEEEEDEEEEEDEEGIGCAARGGATPLSYPSPGPQPPGPSWTATFDPVPTDAPTSPRVSGEEELHTGPPAPQGPLSVPQGLPTQSLASPPARDALQLRSQDPTPPSAPQEATEGSKVTEPSAPCQALVSIGDLQATFHGIRSAPSSSDSATRDPSTSVPASGAHQPPQTTEGEKSPEPLGLPQSQSAQALTPPPIPNGSAPEGPASPGSQ	binding [5]: binds
	binds	PP6R1 (endogenous in 293T cells) (protein, UniProt Q9UPN7 1-881) MFWKFDLHTSSHLDTLLEREDLSLPELLDEEDVLQECKVVNRKLLDFLLQPPHLQAMVAWVTQEPPDSGEERLRYKYPSVACEILTSDVPQINDALGADESLLNRLYGFLQSTGSLNPLLASFFSKVMGILINRKTDQLVSFLRKKDDFVDLLLQHIGTSAIMDLLLRLLTCVERPQLRQDVVNWLNEEKIVQRLIEQIHPSKDENQHSNASQSLCDIIRLSREQMIQVQDSPEPDQLLATLEKQETIEQLLSNMFEGEQSQSVIVSGIQVLLTLLEPRRPRSESVTVNSFFSSVDGQLELLAQGALESTVSSVGALHALRPRLSCFHQLLLEPPKLEPLQMTWGMLAPPLGNTRLHVVKLLASALSANDAALTHELLALDVPNTMLDLFFHYVFNNFLHAQVEGCVSTMLSLGPPPDSSPETPIQNPVVKHLLQQCRLVERILTSWEENDRVQCAGGPRKGYMGHLTRVAGALVQNTEKGPNAEQLRQLLKELPSEQQEQWEAFVSGPLAETNKKNMVDLVNTHHLHSSSDDEDDRLKEFNFPEEAVLQQAFMDFQMQRMTSAFIDHFGFNDEEFGEQEESVNAPFDKTANITFSLNADDENPNANLLEICYKDRIQQFDDDEEEEDEEEAQGSGESDGEDGAWQGSQLARGARLGQPPGVRSGGSTDSEDEEEEDEEEEEDEEGIGCAARGGATPLSYPSPGPQPPGPSWTATFDPVPTDAPTSPRVSGEEELHTGPPAPQGPLSVPQGLPTQSLASPPARDALQLRSQDPTPPSAPQEATEGSKVTEPSAPCQALVSIGDLQATFHGIRSAPSSSDSATRDPSTSVPASGAHQPPQTTEGEKSPEPLGLPQSQSAQALTPPPIPNGSAPEGPASPGSQ	
	binds	ANKRD52 (endogenous in 293T cells) (protein, UniProt Q8NB46 1-1076) MGILSITDQPPLVQAIFSRDVEEVRSLLSQKENINVLDQERRTPLHAAAYVGDVPILQLLLMSGANVNAKDTLWLTPLHRAAASRNEKVLGLLLAHSADVNARDKLWQTPLHVAAANRATKCAEALAPLLSSLNVADRSGRSALHHAVHSGHLETVNLLLNKGASLNVCDKKERQPLHWAAFLGHLEVLKLLVARGADLGCKDRKGYGLLHTAAASGQIEVVKYLLRMGAEIDEPNAFGNTALHIACYLGQDAVAIELVNAGANVNQPNDKGFTPLHVAAVSTNGALCLELLVNNGADVNYQSKEGKSPLHMAAIHGRFTRSQILIQNGSEIDCADKFGNTPLHVAARYGHELLISTLMTNGADTARRGIHDMFPLHLAVLFGFSDCCRKLLSSGQLYSIVSSLSNEHVLSAGFDINTPDNLGRTCLHAAASGGNVECLNLLLSSGADLRRRDKFGRTPLHYAAANGSYQCAVTLVTAGAGVNEADCKGCSPLHYAAASDTYRRAEPHTPSSHDAEEDEPLKESRRKEAFFCLEFLLDNGADPSLRDRQGYTAVHYAAAYGNRQNLELLLEMSFNCLEDVESTIPVSPLHLAAYNGHCEALKTLAETLVNLDVRDHKGRTALFLATERGSTECVEVLTAHGASALIKERKRKWTPLHAAAASGHTDSLHLLIDSGERADITDVMDAYGQTPLMLAIMNGHVDCVHLLLEKGSTADAADLRGRTALHRGAVTGCEDCLAALLDHDAFVLCRDFKGRTPIHLASACGHTAVLRTLLQAALSTDPLDAGVDYSGYSPMHWASYTGHEDCLELLLEHSPFSYLEGNPFTPLHCAVINNQDSTTEMLLGALGAKIVNSRDAKGRTPLHAAAFADNVSGLRMLLQHQAEVNATDHTGRTALMTAAENGQTAAVEFLLYRGKADLTVLDENKNTALHLACSKGHEKCALMILAETQDLGLINATNSALQMPLHIAARNGLASVVQALLSHGATVLAVDEEGHTPALACAPNKDVADCLALILSTMKPFPPKDAVSPFSFSLLKNCSIAAAKTVGGCGALPHGASCPYSQERPGAIGLDGCYSE	
